Data: paper PMC4780704, “A Parallel G Quadruplex-Binding Protein Regulates the Boundaries of DNA Elimination Events of Tetrahymena thermophila”
The exact form of at least one protein or probe is not confirmed. For some assays here: A negative result means that nothing was seen under these conditions. For some assays here: At least one verdict rests on a figure or table, not on a statement of the authors. Protein sequences can lack the tags named with them. For some assays here: The comparison behind a weaker result is the experiment's own reference, which may not be listed here.

Key:
[1] = target: T1, His-Lia3 (Tetrahymena thermophila) (UniProt A3F815); experiment: competition with a labelled probe; conditions: 5X/20X vs G4-M1 probe, LiCl, EMSA: 10 mM Tris pH 7.5, 1 mM EDTA, 0.1 mM DTT, 5% glycerol, 0.010 mg/ml BSA, 100 mM KCl (or 100 mM LiCl to limit G4), 4 nM probe, RT, recombinant protein, protein details: N-terminal His
T1 sequence (looked up, limits assumed): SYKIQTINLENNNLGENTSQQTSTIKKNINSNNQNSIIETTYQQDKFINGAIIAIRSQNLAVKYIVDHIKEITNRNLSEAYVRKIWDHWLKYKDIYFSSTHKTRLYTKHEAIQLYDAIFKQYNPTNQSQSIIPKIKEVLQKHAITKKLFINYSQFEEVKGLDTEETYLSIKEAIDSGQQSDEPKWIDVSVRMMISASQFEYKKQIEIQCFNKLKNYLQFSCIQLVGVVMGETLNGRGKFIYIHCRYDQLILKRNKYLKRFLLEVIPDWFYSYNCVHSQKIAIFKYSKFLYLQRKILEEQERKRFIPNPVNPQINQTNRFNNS

[2] = target: T1, His-Lia3 (Tetrahymena thermophila); experiment: EMSA; conditions: EMSA: 10 mM Tris pH 7.5, 1 mM EDTA, 0.1 mM DTT, 5% glycerol, 0.010 mg/ml BSA, 100 mM KCl (or 100 mM LiCl to limit G4), recombinant protein, protein details: N-terminal His, label: 32P (5' PNK), unlabeled as competitor; for Kd: 100 mM LiCl, extrapolated, 4 nM probe …
[3] = target: T2, MBP-Lia3 (Tetrahymena thermophila) (UniProt A3F815); experiment: EMSA; conditions: 50-400 nM protein, LiCl; EMSA: 10 mM Tris pH 7.5, 1 mM EDTA, 0.1 mM DTT, 5% glycerol, 0.010 mg/ml BSA, 100 mM KCl (or 100 mM LiCl to limit G4), 4 nM probe, RT; recombinant protein; protein details: N-terminal MBP-TEV-His; label: 32P (5' PNK), unlabeled as competitor; single-stranded DNA
T2 sequence (looked up, limits assumed): T1 sequence (looked up, limits assumed)

[4] = label: unlabeled competitor, single-stranded DNA

TTCAAGACAAAAAAAGGGGGATGGGTTTCC [ssM2]: no binding [1, 4].
TTTATTAATCAAAAAGCGGGTAAATAATAA [M1-mut]: no binding [1, 4].
In the case of “TTTATTAATCAAAAAGGGGGTAAATAATAA (double strand) [dsM1]”, the binding result ([2]; 300 nM protein, weakly or not at all, 4 nM probe, RT) is reported as “binds more weakly”, the Kd [2] is reported as > 200 µM and the binding result ([1]; label: 32P (5' PNK), unlabeled as competitor) is reported as “no binding”.
TTTATTAATCAAAAAGGGGGTAAATAATAA [ssM1] was tested, and the Kd ([2]; single-stranded DNA) was > 200 µM, the binding result [3] was “no binding” and the binding result ([1]; label: 32P (5' PNK), unlabeled as competitor, single-stranded DNA) was “no binding”.
